# Data from PubChem BioAssay AID1347423 (Functional Genomics Laboratory (NCATS/FGL), 2020).
# Hit rate of the full screen: of about 52,000 sequences, about 210 (0.4%) were called active.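 How the source made its calls: active means gene whose silencing raises cell survival under the drug, median off-target-corrected z-score across its silencing RNAs 2 or more; inactive means the rest.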 The list shows a part of the results.
# Experiment: Resistance to Poly (ADP-Ribose) Polymerase inhibitor: Gene Identification via Genome-wide siRNA Screen
# Details: mouse BRCA2 R2336H ES cells, olaparib, CellTiter-Glo viability; active compounds read high
# How it was run: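 Mouse BRCA2 R2336H ES cells were reverse-transfected with siRNA (20 nM final), treated at 48 h with 500 nM olaparib, and read by CellTiter-Glo after 72 h. Scores: MAD-based z per siRNA, median per gene, seed off-target correction.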
row,Sequence,z-score
1,GGAAUGACAAUUGUAAACUTT against Mphosph6,inactive: 0.41
2,GCUCCCAUUAUCAUUCAAATT against 2810009O15Rik,inactive: 0.414
3,GCCUCCAAUAAGAUUAUAUTT against Ceacam10,inactive: -1.17
4,GGAGAUCCUCAAGGAGCAGTT against Park7,inactive: 1.9
5,GGACGUGAAAGCUUUGGUUTT against Nrip3,inactive: 0.209
6,GGAACAGCAAAAAUAAGACTT against V1re5,inactive: 0.927
7,GGAAGCCUUGUGUGCACAUTT against Gng10,inactive: 0.39
8,GGCCGAAGAAUUCAUCUUUTT against C85492,inactive: 0.769
9,GGGCAAACAACAUCGAUGGTT against 2610014F08Rik,inactive: -0.356
10,GGGCAGAAAAUUGACUUAATT against Sdccag1,inactive: -1.8
11,GCUGGUUCUGUUUGUUAUUTT against Olfr1014,inactive: 0.484
12,GGAGAUCACCAAAUUUGAGTT against Eef1d,inactive: -0.69
13,GGGACUCAGUGUUUAUUGATT against B230114P05Rik,inactive: 1.34
14,CGUAUUUAUGUUCUGUUGUTT against Sox8,inactive: 0.56
15,GGAGGAAAGUUGUAUUUGATT against Nudt7,inactive: 0.0407
16,GGACUUCUACGUGAUGGAGTT against Pip5k1c,inactive: 1.51
17,GCUGAUCGAGUAGCUAUUATT against Cse1l,inactive: -2.75
18,CCUGUUUGAGAUAUUUGAATT against Npnt,inactive: -0.653
19,GGAGAUUACGAGAUGUCAATT against BC031781,inactive: -0.111
20,GCUUAAAACUUCACGAGGATT against Ppp1r3c,inactive: -1.12
21,GGAGUUCAAGAGCACAAAUTT against Atp4a,inactive: -1.34
22,GGCAGAGAAUGGAAGAGAUTT against Ptma,inactive: -1.27
23,CCCGGAUGAUGGAGAUAUUTT against 2610034E18Rik,inactive: -1.14
24,GGAUGUGCAAGAGUAUCUCTT against Fbp2,inactive: 1.05
25,GGGAUCAUGGAUUUCUUCCTT against BC025600,inactive: 0.237
26,GGCGACAUCAUGCUAAUGATT against Fgfbp1,inactive: -1.51
27,GGACAUAGUGAUGCUUCAGTT against MGC36320,inactive: 1.95

row,Sequence,z-score
1,GGUAAUACAUUCCUCUAACTT against Zfyve16,inactive: 0.179
2,AAGGUUUGGAAACUCAUUGTT against Zfp50,inactive: 0.0761
3,CCUAAACAUGCUGUCCCUATT against Apoc3,inactive: -2.6
4,GGAAAUUUGCCUAUUGAAATT against Il6,inactive: -0.17
5,GGAAUAAGUCCUAUGAAUCTT against 3830421F13Rik,inactive: 0.848
6,CGGAGCGUGCUUACCAAAATT against Rps11,inactive: -2.58
7,GGUGGUGGUGGUGAUUUUGTT against Mad2l2,inactive: 1.66
8,GGCCUGUUUAGUCUAUAUATT against Lztfl1,inactive: -0.215
9,GGAUGCUUGGCUGAAUCACTT against Smyd1,inactive: 0.0932
10,GCCAGUUGGUUACUAUGGATT against Tax1bp3,inactive: 2.54
11,GGAAAGGAACAAAGAAUCATT against Cpb2,inactive: 1.65
12,GGAAGUUUUGGGAGUGUGUTT against B230120H23Rik,inactive: -0.52
13,GGAGAAGAAGAAAACGUACTT against Mmp10,inactive: 0.19
14,GGUAAACAUUGCUACUUUGTT against Mpdz,inactive: -0.383
15,GGCCAAAAUUAAAAAGGCCTT against 2810405I11Rik,inactive: 1
16,GCUGAACAACGAUUGCUCATT against 2700050C12Rik,inactive: -0.163
17,CCUUGAACGAGAGUGCAUUTT against Pros1,inactive: 0.786
18,GCCGCCACAGAAAAAGUCUTT against Dtx3l,inactive: -1.27
19,CCUGUGAAAUACCAGCGUGTT against BC003885,inactive: 1.31
20,GGAAGUCAUCUCCUACUAUTT against Lix1,inactive: -0.467
21,CGCCUUCAUUAUGGUGACGTT against Pigc,inactive: -0.675
22,CCUGUUGUGCAGAUGGUUUTT against Rab28,inactive: 0.233
23,GGGCUUCUUCUGCUAUGACTT against BC018242,inactive: -1.87
24,GAUAAAGGAUACCUCAGUGTT against Scrt1,inactive: -0.214
25,CCAACAUAUUGUUCGUCGGTT against Slc13a2,inactive: 0.156
26,CCUCAUUUUAGUCGUAGAATT against Syt11,inactive: 1.05

# As a working copy, part of the list above.
row,Sequence,z-score
6,GGAACAGCAAAAAUAAGACTT against V1re5,inactive: 0.927
7,GGAAGCCUUGUGUGCACAUTT against Gng10,inactive: 0.39
8,GGCCGAAGAAUUCAUCUUUTT against C85492,inactive: 0.769
9,GGGCAAACAACAUCGAUGGTT against 2610014F08Rik,inactive: -0.356
